Experimental data reported in PubChem BioAssay AID2685 (National Center for Advancing Translational Sciences (NCATS), 2010).
The other results are listed elsewhere or left out. These are further read-outs of the screen, such as a control signal, another cell line or another target. No call is given for them. Most of these compounds were active or inconclusive in the main read-out, so they are no random draw. The note in brackets gives the kind of curve behind each potency; many fits are weak.

Experiment: qHTS Assay for Lipid Storage Modulators in Drosophila S3 Cells;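 as to cell number change: cells counted by Cell Tracker Red CMTPX staining in the red channel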
Conditions: BODIPY lipid droplet fluorescence, 18-24 h; for cell number change: measured here: cell count max response, cells fed with added oleic acid
Summary of the method: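 Laser-scanning cytometry quantifies lipid droplet accumulation (500–530 nm total intensity; droplet/cell object ratio) in oleic acid-fed (400 uM added) Drosophila S3 cells treated with a concentration series. 20 uM Triacsin C defined 100% inhibition.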

[1] = measured here: cell number channel AC50, cells fed with added oleic acid
[2] = measured here: lipid fluorescence (Fed channel) AC50, cells fed with added oleic acid

SMILES	cell number change [%]	AC50 [1]	AC50 [2]
Nc1nc(SCC(=O)Nc2c(Br)cc([N+](=O)[O-])cc2Br)n[nH]1	-39.3	0.164 µM [falling, full curve]	
CN(CC(=O)Nc1ccc(F)c(F)c1F)C(=O)c1ccc(-n2cncn2)cc1	-2.32		29.1 µM [rising, single point]
Cc1ccc(NC(=O)COC(=O)c2nn(C)cc2Cl)cc1	-16.7		1.16 µM [rising, full curve]
O=C(CN(Cc1ccc(F)cc1)C(=O)c1csnn1)NCc1ccccc1	-21		6.51 µM [rising, single point]
Cc1ccc(S(=O)(=O)/C(=C/Cl)NC(=O)c2ccccc2)cc1	33.3	14.6 µM [rising, single point]	18.4 µM [falling, partial curve]
Cc1ccc(CC(=O)Nc2ccc(S(=O)(=O)N3CCOCC3)cc2)cc1	7.89		
CCCC1CC(CSc2ncn[nH]2)OC1=O (centres undefined)	-14.7		0.259 µM [falling, full curve, poor fit]
COc1ccc(C(=O)NCCC2=CCCCC2)cc1	18.2		29.1 µM [rising, single point]
NC(=O)C1CCN(CC(=O)NCc2ccccc2)CC1	-31.7		18.4 µM [falling, partial curve, poor fit]
O=C(N/N=C/c1ccncc1)c1cc2c(ccc3ccccc32)o1	-4.75		2.59 µM [rising, full curve]
CCN(CC)S(=O)(=O)c1ccc(NC(=O)Cn2c(=O)oc3ccccc32)cc1	-2.37		
O=C(CN1CCCCC1)NCCNc1ccc(C(F)(F)F)cc1[N+](=O)[O-]	-7.54		
CCN(CCCNC(=O)CNC(=O)Cn1cnc2ccccc2c1=O)c1cccc(C)c1	6.56		
COc1ccc(S(=O)(=O)N(CC(=O)NN=C2CCN(C)CC2)c2cc(Cl)ccc2OC)cc1OC	15.8		3.26 µM [falling, partial curve]
C=CCn1c(SCc2ccc(C#N)cc2)nnc1-c1cccc(OC)c1	55.6	10.3 µM [rising, partial curve]	
Cc1cc(C)nc(N/C(=N\S(=O)(=O)Cc2ccccc2)Nc2ccc(F)c(Cl)c2)n1	10.7		
O=C(C1COc2ccccc2O1)N1CCc2ccccc21 (centres undefined)	113	29.1 µM [rising, single point]	
Cc1nn(Cc2ccc(F)cc2)c(C)c1NC(=O)c1cc(-c2ccco2)on1	12.1		0.116 µM [rising, full curve]
Cc1ccc(C)c(N(C)C(=O)c2cc3c(=O)[nH]c4ccc(C)cc4c3s2)c1	11.5		0.366 µM [rising, full curve]

Some entries already given with just AC50 [2].
SMILES	AC50 [2]
COc1ccc(C(=O)NCCC2=CCCCC2)cc1	29.1 µM [rising, single point]
NC(=O)C1CCN(CC(=O)NCc2ccccc2)CC1	18.4 µM [falling, partial curve, poor fit]
